Results as given in doi:10.1101/2025.01.09.632284.
Results are given in words; binding and its absence hold for the method and conditions named. In cells and extracts the contact can be indirect. A result given as binding can be weak or reduced; the word gives no strength.

The chains behind the UniProt entries cited, without tags or fusion partners. Where a name states a change or a piece, a line headed by the entry shows the natural chain unless it says otherwise.
UniProt Q14974: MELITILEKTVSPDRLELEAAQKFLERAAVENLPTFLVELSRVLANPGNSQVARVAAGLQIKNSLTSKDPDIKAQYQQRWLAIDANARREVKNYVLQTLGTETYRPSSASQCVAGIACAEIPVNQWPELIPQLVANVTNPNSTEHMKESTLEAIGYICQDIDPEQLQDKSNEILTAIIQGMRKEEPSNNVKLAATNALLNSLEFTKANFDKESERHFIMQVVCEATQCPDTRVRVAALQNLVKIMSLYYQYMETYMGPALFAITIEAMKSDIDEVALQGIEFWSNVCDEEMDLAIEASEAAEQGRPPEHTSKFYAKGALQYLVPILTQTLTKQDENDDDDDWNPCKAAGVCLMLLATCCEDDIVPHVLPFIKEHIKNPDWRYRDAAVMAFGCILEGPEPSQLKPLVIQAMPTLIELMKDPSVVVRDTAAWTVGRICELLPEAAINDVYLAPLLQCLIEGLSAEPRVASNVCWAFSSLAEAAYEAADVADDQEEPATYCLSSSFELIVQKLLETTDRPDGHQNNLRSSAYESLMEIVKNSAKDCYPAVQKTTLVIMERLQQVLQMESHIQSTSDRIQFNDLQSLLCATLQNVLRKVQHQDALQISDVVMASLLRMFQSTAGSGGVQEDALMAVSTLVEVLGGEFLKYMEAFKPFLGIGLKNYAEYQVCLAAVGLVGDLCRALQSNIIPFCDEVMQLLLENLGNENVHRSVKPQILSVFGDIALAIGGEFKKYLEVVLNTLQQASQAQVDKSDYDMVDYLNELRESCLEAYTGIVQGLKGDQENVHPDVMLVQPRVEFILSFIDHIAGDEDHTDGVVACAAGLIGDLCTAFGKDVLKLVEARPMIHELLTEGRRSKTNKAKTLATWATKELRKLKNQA
UniProt P07711: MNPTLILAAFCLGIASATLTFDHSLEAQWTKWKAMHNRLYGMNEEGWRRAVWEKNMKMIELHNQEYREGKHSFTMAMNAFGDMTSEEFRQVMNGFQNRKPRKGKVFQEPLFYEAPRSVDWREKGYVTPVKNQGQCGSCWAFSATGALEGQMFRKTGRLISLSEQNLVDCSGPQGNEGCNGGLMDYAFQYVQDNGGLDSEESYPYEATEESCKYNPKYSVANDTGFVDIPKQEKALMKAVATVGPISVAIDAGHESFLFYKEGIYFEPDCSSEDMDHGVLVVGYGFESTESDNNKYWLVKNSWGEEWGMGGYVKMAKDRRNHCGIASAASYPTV
UniProt P52294: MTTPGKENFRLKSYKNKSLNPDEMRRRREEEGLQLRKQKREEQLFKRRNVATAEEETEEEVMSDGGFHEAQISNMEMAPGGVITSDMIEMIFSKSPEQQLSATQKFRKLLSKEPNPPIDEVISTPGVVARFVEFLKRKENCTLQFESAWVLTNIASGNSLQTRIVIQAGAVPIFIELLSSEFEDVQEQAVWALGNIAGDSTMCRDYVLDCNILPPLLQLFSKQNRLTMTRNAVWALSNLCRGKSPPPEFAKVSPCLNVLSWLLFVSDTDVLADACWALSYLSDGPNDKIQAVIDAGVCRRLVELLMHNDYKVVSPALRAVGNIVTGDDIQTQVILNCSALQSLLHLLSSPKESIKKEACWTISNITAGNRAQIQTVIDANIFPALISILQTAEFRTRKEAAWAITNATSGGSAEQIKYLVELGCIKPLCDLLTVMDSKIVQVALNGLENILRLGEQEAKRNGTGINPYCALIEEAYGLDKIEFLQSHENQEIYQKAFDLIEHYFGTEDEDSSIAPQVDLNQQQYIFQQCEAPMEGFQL

Assays:
[1] = target: Importin B1 (KPNB1) (human (endogenous in HEK293)) (UniProt Q14974); assay: co-IP
[2] = target: Flag-tagged full length CTSL (human cathepsin L) (human) (UniProt P07711); assay: co-IP

Substance	binding [1]	binding [2]
Flag-tagged full length CTSL (human cathepsin L) (from UniProt P07711)	binds	–
KPNA1 (from UniProt P52294 1-538)	–	no binding
Importin B1 (KPNB1) (from UniProt Q14974 1-876)	–	binds
